PubChem BioAssay AID1259279 – Sanger Institute | 2017

Screen: 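Find kinases whose loss works with colorectal cancer drugs to kill cells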 (primary screen)
Cell system: LS180 human colorectal cancer cells
Reagents: siRNA pool against human genes
Treatment: anchor drug BYL719 at 1 µM, cetuximab at 5 µg/ml or trametinib at 10 nM, or DMSO vehicle only
Measured: 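Viability as a fraction of non-targeting control and as a replicate-averaged robust z-score, with separate synergy scores for BYL719, cetuximab and trametinib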
Scale: viability z-score, no drug: higher = more viable cells after knock-down; viability, no drug: higher = more viable cells
Units: viability, no drug in fraction
Call rule: 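Essential (active) calls need a no-drug viability z-score lower than -3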
Calls: active = essential (knock-down alone cuts viability); inactive = no change without drug
Here is one part, drawn at random, of 794 deposited reagents. In the full data, 11 (1.4%) are marked active. 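Calls reflect knock-down alone in the vehicle arm, not drug synergy.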 Unmarked entries are inactive. No viability above 1 is reported: the scale is capped. Further read-outs or replicates are left out here. Not stated in the record: the amount of reagent, the time to read-out.

MECOM (MDS1 and EVI1 complex locus) showed viability z-score, no drug 0.86; viability, no drug 1.
Knock-down of ETNK2 (ethanolamine kinase 2) resulted in: viability z-score, no drug -0.761; viability, no drug 0.823.
Silencing of TEX14 (testis expressed 14, intercellular bridge forming factor) resulted in: viability z-score, no drug 0.86; viability, no drug 1.
Against CDC42BPG (CDC42 binding protein kinase gamma) the deposit lists viability z-score, no drug 0.86; viability, no drug 1.
Knock-down of DIS3 (DIS3 exosome endoribonuclease and 3'-5' exoribonuclease) came out at: viability z-score, no drug -0.267; viability, no drug 0.877.
Depletion of HUNK (hormonally up-regulated Neu-associated kinase) gave: viability z-score, no drug -3.36 (active); viability, no drug 0.54.
For MOK (MOK protein kinase) the deposit lists viability z-score, no drug 0.86; viability, no drug 1.
With knock-down of NEK3 (NIMA related kinase 3) the results were viability z-score, no drug -0.251; viability, no drug 0.879.
After knock-down of TESK1 (testis associated actin remodelling kinase 1) the results were viability z-score, no drug 0.0423; viability, no drug 0.911.
MAP3K21 (mitogen-activated protein kinase kinase kinase 21) scored viability z-score, no drug -0.91; viability, no drug 0.807.
For RIPK1 (receptor interacting serine/threonine kinase 1) the deposit lists viability z-score, no drug 0.86; viability, no drug 1.
SBK1 (SH3 domain binding kinase 1) gave viability z-score, no drug 0.86; viability, no drug 1.
For PRKAR1B (protein kinase cAMP-dependent type I regulatory subunit beta), the values are viability z-score, no drug -2.22; viability, no drug 0.664.
For CDK12 (cyclin dependent kinase 12), the entry reads viability z-score, no drug 0.395; viability, no drug 0.949.
With knock-down of NEK9 (NIMA related kinase 9), the record shows viability z-score, no drug -0.366; viability, no drug 0.866.
MAP4K1 (mitogen-activated protein kinase kinase kinase kinase 1) showed viability z-score, no drug -1.09; viability, no drug 0.788.
Depletion of CHUK resulted in: viability z-score, no drug -0.368; viability, no drug 0.866.
After knock-down of MAPK4 (mitogen-activated protein kinase 4), the record shows viability z-score, no drug -0.962; viability, no drug 0.801.
With knock-down of STK33 (serine/threonine kinase 33) the results were viability z-score, no drug 0.86; viability, no drug 1.
IRAK3 (interleukin 1 receptor associated kinase 3) scored viability z-score, no drug -0.0176; viability, no drug 0.904.
With knock-down of NR4A2 (nuclear receptor subfamily 4 group A member 2), the screen gave viability z-score, no drug -2.69; viability, no drug 0.613.
Against GSK3B (glycogen synthase kinase 3 beta), the entry reads viability z-score, no drug 0.86; viability, no drug 1.
For PAK4 (p21 (RAC1) activated kinase 4), the values are viability z-score, no drug -0.881; viability, no drug 0.81.

Entries listed so far with an active call, once more:
HUNK (hormonally up-regulated Neu-associated kinase) | viability z-score, no drug: -3.36 (active); viability, no drug: 0.54

The listing continues:
With knock-down of CAMK1 (calcium/calmodulin dependent protein kinase I), the record shows viability z-score, no drug -2.39; viability, no drug 0.645.
Silencing of PI4K2A (phosphatidylinositol 4-kinase type 2 alpha) resulted in: viability z-score, no drug 0.749; viability, no drug 0.988.
After knock-down of CALM2 (calmodulin 2), the screen gave viability z-score, no drug -1.12; viability, no drug 0.785.
Silencing of SRPK3 (SRSF protein kinase 3) resulted in: viability z-score, no drug 0.86; viability, no drug 1.
Against MAPKAPK3 (MAPK activated protein kinase 3) the deposit lists viability z-score, no drug -1.3; viability, no drug 0.765.
After knock-down of VRK3 (VRK serine/threonine kinase 3), the record shows viability z-score, no drug 0.86; viability, no drug 1.
For PGK2 (phosphoglycerate kinase 2), the values are viability z-score, no drug 0.86; viability, no drug 1.
After knock-down of CAMK1D (calcium/calmodulin dependent protein kinase ID), the record shows viability z-score, no drug 0.495; viability, no drug 0.96.
After knock-down of TSSK6 (testis specific serine kinase 6), the record shows viability z-score, no drug 0.329; viability, no drug 0.942.
CDKN1A (cyclin dependent kinase inhibitor 1A) showed viability z-score, no drug 0.86; viability, no drug 1.
CSNK1G2 (casein kinase 1 gamma 2) scored viability z-score, no drug 0.86; viability, no drug 1.
Knock-down of NUP98 (nucleoporin 98 and 96 precursor) came out at: viability z-score, no drug -1.65; viability, no drug 0.727.
Against CDK7 (cyclin dependent kinase 7), the entry reads viability z-score, no drug 0.106; viability, no drug 0.918.
